Experimental data: PubChem BioAssay AID248 (DTP/NCI, 2004)
The list is a part of this screen's results and no random one: it is rich in T/C values a quarter to a half above the control, in often repeated tests (any T/C) and in doses without a T/C. Other doses and runs of a compound stand elsewhere. T/C gives the treated animals as a percentage of the vehicle group. Some doses have a count of surviving animals in place of a T/C: the source holds a T/C of zero for them, seemingly a mark for toxic or unscored doses. Some doses without a T/C left all or most animals alive at the check, yet need not have been tolerated: the source hardly ever lists a survival T/C far under the control, and the zero likely stands for such cases as well. Survivors were counted at the toxicity check, usually on the fifth day, unless a day is given; later deaths do not show. Schedules are NCI's codes, read here as Q, the interval in days (D) or hours (H), X, the number of doses. Where survival is the endpoint, the PubChem record calls one and a half times the control and up active, and a quarter to a half above the control has no call in these data; cut-offs in other NCI protocols can differ.

Tested on: L1210 leukemia ip in BDF1 mice, survival T/C
Assay: NCI In Vivo Anticancer Drug Screen. Data for tumor model L1210 Leukemia (intraperitoneal) in B6D2F1 (BDF1) mice
Details: T/C endpoint: mean survival time, higher T/C = longer survival

CCOC(=O)c1ncc(Cl)cc1N
survivor count (dose: 400.0 mg/kg/injection, schedule: Q01DX001 (ip), vehicle: Klucel (hydroxypropylcellulose) (HPC)): 0 of 6

Cc1[nH]c2ccccc2c1C
survivor count (dose: 400.0 mg/kg/injection, schedule: Q01DX009 (ip), vehicle: Klucel (hydroxypropylcellulose) (HPC)): 1 of 6

CC(C)(C)COC(=O)CCN1CC1
survivor count (dose: 80.0 mg/kg/injection, schedule: Q01DX009 (ip), vehicle: Klucel (hydroxypropylcellulose) (HPC)): 6 of 6 | survivor count (dose: 200.0 mg/kg/injection, schedule: Q04DX003 (ip), vehicle: Klucel (hydroxypropylcellulose) (HPC)): 1 of 6 | survivor count (dose: 400.0 mg/kg/injection, schedule: Q04DX003 (ip), vehicle: Klucel (hydroxypropylcellulose) (HPC)): 0 of 6

CSC1SCC2C(=O)N(C)C(C(C)C)C(=O)OCC(NC(=O)c3cnc4ccccc4n3)C(=O)NC(C)C(=O)N(C)C1C(=O)N(C)C(C(C)C)C(=O)OCC(NC(=O)c1cnc3ccccc3n1)C(=O)NC(C)C(=O)N2C (stereo not drawn)
T/C (dose: 30.0 micrograms/kg/injection, schedule: Q01DX009 (ip), vehicle: saline with Tween-80): 126 % of control

CC1(ON(c2cc(Cl)cc(Cl)c2)C2(C)c3ccccc3-c3ccccc32)c2ccccc2-c2ccccc21
survivor count (dose: 400.0 mg/kg/injection, schedule: Q04DX003 (ip), vehicle: saline with Tween-80): 6 of 6

CCCCCCCCCCCCn1ncc2ccc([N+](=O)[O-])cc21
survivor count (dose: 100.0 mg/kg/injection, schedule: Q01DX001 (ip), vehicle: saline): 4 of 4 | survivor count (dose: 200.0 mg/kg/injection, schedule: Q01DX001 (ip), vehicle: saline): 4 of 4

Cc1ccc(S(=O)(=O)Nc2cc(Cl)c(I)cc2Cl)cc1
survivor count (dose: 100.0 mg/kg/injection, schedule: Q04DX003 (ip), vehicle: saline with Tween-80): 6 of 6

COC(=O)/C=C(\C)Nc1cccc([N+](=O)[O-])c1
survivor count (dose: 200.0 mg/kg/injection, schedule: Q01DX001 (ip), vehicle: other): 2 of 6 | survivor count (dose: 400.0 mg/kg/injection, schedule: Q01DX001 (ip), vehicle: other): 0 of 6

COc1cc2ccc3c(c2cc1OC)CNCC3
survivor count (dose: 400.0 mg/kg/injection, schedule: Q04DX003 (ip), vehicle: saline): 0 of 6
